No constants are given. Whether binding was seen depends on the method and setting. In cells and extracts the contact can be indirect. Some results given as binding are weak or reduced against the parent protein; the word gives no strength.
Target: EGFR-GFP (from lysate of transfected COS7 cells; also expressed in HeLa cells) (human) [GFP: P42212]
Assay: GST pull-down from COS7 lysate containing EGFR-GFP, with GDP or GTPγS, anti-GFP immunoblot

Chains of the proteins cited; added tags and fusions are not shown. Lines headed by an entry give the natural chain unless they say otherwise; changes in a name come on top.
UniProt Q5R548: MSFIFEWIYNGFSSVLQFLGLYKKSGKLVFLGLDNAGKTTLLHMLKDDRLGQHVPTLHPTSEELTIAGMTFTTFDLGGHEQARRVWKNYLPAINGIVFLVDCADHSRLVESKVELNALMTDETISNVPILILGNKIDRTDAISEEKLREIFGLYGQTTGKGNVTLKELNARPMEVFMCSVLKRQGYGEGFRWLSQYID

binding: binds
Substance: GST-tagged SAR1A wild type (wt) (from UniProt Q5R548 1-198)

From patent US20190277844A1
